Measured values from patent publication US20070286888A1, “Additive For Feeds And Feed Containing The Same” (Kabushiki Kaisha Yakult Honsha, priority 2004, published 2007).
Structures can show the parent of a compound that is named as a salt. At least one compound was matched to its structure with a doubt left.

Columns and labels:
[1] = tested on: L. reuteri YIT0480 strain; assay: Antibiotic resistance test, L. reuteri; type: cell-based, Lactobacillus reuteri
Experimental: (§1) The 11 antibiotics shown in Table 3 were separately added at concentrations of 100, 10, 1, 0.1, and 0 μg/ml, to thereby prepare MRS agar mediums (manufactured by Difco). Subsequently, cell culture solutions of the five bacterial stains (A) and (B) obtained in Production Example 1 (10 μl each) were separately inoculated into the respective antibiotic-containing MRS mediums (the cell number of each bacterial strain: about 1·10^8 cells/ml), followed by smear culture at 37° C. for 48 hours under anaerobic conditions. The proliferated bacteria were evaluated with the naked eye, and the […] for each antibiotic (μg/ml) were calculated.

[2] = tested on: L. johnsonii YIT0482 strain; assay: Antibiotic resistance test, L. johnsonii; type: cell-based, Lactobacillus johnsonii
Experimental: as §1

[3] = tested on: L. crispatus YIT0481 strain; assay: Antibiotic resistance test, L. crispatus; type: cell-based, Lactobacillus crispatus
[4] = tested on: five Lactobacillus bacterial stains (A) and (B); assay: Antibiotic resistance test, all five strains; type: cell-based
Experimental: as §1

**Q.** With `CN(C)[C@@H]1C(O)=C(C(N)=O)C(=O)[C@@]2(O)C(O)=C3C(=O)c4c(O)cccc4[C@@](C)(O)[C@H]3[C@H](O)[C@@H]12` [Oxytetracycline hydrochloride] as the compound, how does the “Resistance of the strain to the antibiotic (in words)” value [1] read?
**A.** particularly excellent resistance

**Q.** For `CC1COc2c(N3CCN(C)CC3)c(F)cc3c(=O)c(C(=O)O)cn1c23` (centres unmarked) [Ofloxacin], which “Resistance of the strain to the antibiotic (in words)” value [2] is on record?
**A.** excellent specific resistance

**Q.** What about the “Resistance of the strain to the antibiotic (in words)” value [1] of the same compound?
**A.** excellent specific resistance

**Q.** What about the “Resistance of the strain to the antibiotic (in words)” value [3] of the same compound?
**A.** excellent specific resistance

**Q.** Which “Resistance of the strains to the antibiotic (in words)” value [4] does the source give for `NC[C@H]1O[C@H](O[C@H]2[C@H](O)[C@@H](O[C@H]3O[C@H](CO)[C@@H](O)[C@H](N)[C@H]3O)[C@H](N)C[C@@H]2N)[C@H](O)[C@@H](O)[C@@H]1O` [Kanamycin sulfate] here?
**A.** excellent resistance
